The results in this text go back to publication PMC7819943, “Rice protein-binding microarrays: a tool to detect cis-acting elements near promoter regions in rice”.

Sequences of proteins named here, by UniProt entry; tags and fusion partners are left off.
UniProt Q0JBA9, entry or part of it: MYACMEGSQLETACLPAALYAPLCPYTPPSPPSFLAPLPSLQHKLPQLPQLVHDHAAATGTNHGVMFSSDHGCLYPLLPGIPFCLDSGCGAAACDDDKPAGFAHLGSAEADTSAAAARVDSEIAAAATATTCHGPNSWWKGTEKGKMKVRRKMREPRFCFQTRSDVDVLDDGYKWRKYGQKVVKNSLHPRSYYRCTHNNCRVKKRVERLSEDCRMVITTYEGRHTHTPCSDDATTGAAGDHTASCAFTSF

This is one part of the list.

For this experiment, the target named is OsWRKY34 (Oryza sativa, UniProt Q0JBA9 1-250). In words: protein-binding microarray (RPBM); PBS, 2% BSA, 51.3 ng/ul salmon testes DNA, 50 uM zinc acetate, 200 nM TF, 25 C, 1 h; high values mean tight binding. The note with it: protein: recombinant; tags: N-terminal polyhistidine and DsRed monomer fusion (pET32a); label: CyDye5-dUTP incorporated in the synthesized complementary strand; 3' TTTTT single-stranded linker to array surface; dsDNA, one strand shown. In a few lines:
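The binding signal for each feature is its fluorescence intensity in arbitrary units. An Axon 4000B scanner was used to read a custom Agilent array that had been made double-stranded with Cy5-dUTP primer extension, blocked with 2% BSA, incubated at 25 °C for 1 h with 200 nM protein in PBS, 2% BSA, salmon testes DNA and 50 µM zinc acetate, and washed. The protein was an N-terminal polyhistidine–DsRed transcription factor fusion from E. coli BL21-CodonPlus, purified on Ni–NTA.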
In the case of “GTCAAATATATTTTAAAAAGTCAACGGTATTAAATATTTACGGAGTCACCTAGTGCAG”, the binding signal was 13100 fluorescence intensity (a.u.). As for “ACTGCCGTGCGCGCGATTCCCTCGTCCCACCCTGCTGAAACGGAGTCACCTAGTGCAG”, the figure is 11800 fluorescence intensity (a.u.); as for “CCGGGCGCTCCTCTCGTTTCCTGGCCCATCATCCGTCACCCGGAGTCACCTAGTGCAG”, 8560 fluorescence intensity (a.u.). As for “TGGGGCATATAATTTTTTTTCAATATTATTTAGTCTCTCGCGGAGTCACCTAGTGCAG”, the figure is 8720 fluorescence intensity (a.u.); as for “TCGAGCTGGGTGGGGTTTTTATATGGGAGGAGAGGCCGCGCGGAGTCACCTAGTGCAG”, 16800 fluorescence intensity (a.u.).

Regarding “AAAGTTTTTCACCACCACAATGCGCCACGTCACCAGAAAACGGAGTCACCTAGTGCAG”, the binding signal is 8280 fluorescence intensity (a.u.). Next, “GAGTGGTGGAGGGTTGTGATTGGATGAGTAGTGGAGGTAGCGGAGTCACCTAGTGCAG”: 8760 fluorescence intensity (a.u.); “ACTGTGTCAAAGCCTTTTCTCTACTTCTGAGGGAACTATTCGGAGTCACCTAGTGCAG”: 8230 fluorescence intensity (a.u.); “TACTAGCTGGTCTGGCCCTACTCAGTTTTACGTGTACCTACGGAGTCACCTAGTGCAG”: 9490 fluorescence intensity (a.u.). In the case of “TCATTTCGTGCGCGGGGAGGGAGGGGAAAAAAACCCTAAACGGAGTCACCTAGTGCAG”, the binding signal is 9820 fluorescence intensity (a.u.). As for “TGTTACTGAAGTCCAATCATTTTTGCTTCTTCACCAAATTCGGAGTCACCTAGTGCAG”, the binding signal was 10000 fluorescence intensity (a.u.).

Regarding “ATGTTTTTGCTTCCGGAACGGACCGTGCGTTACGTTTTCTCGGAGTCACCTAGTGCAG”, the binding signal is 12100 fluorescence intensity (a.u.).

Take “GCTATCTTTTCGCTGTTGCAATGAAATTTCCTGATCACATCGGAGTCACCTAGTGCAG”: the binding signal was 12600 fluorescence intensity (a.u.).

As to “TAAGACGAATGGTCAAACATGTGAGAAAAAGTCAACGGCGCGGAGTCACCTAGTGCAG”, the binding signal is 13100 fluorescence intensity (a.u.).

“CTATCCATATCCGACCCGATTCTAATTATCAATCACCTATCGGAGTCACCTAGTGCAG”: the binding signal is 9000 fluorescence intensity (a.u.). Take “CCTAACCTGATTGGCTAAAGTTTTCCTTTCTTTGTTTTTTCGGAGTCACCTAGTGCAG”: the binding signal is 10300 fluorescence intensity (a.u.). As for “GGCCTAAAACATAGGACGATGGTCAGAGTTATATTTTTCACGGAGTCACCTAGTGCAG”, the figure is 8040 fluorescence intensity (a.u.); as for “GCTTGTTTTCGAAAGTTAGGGGATGGGTCGTACCCGGTTTCGGAGTCACCTAGTGCAG”, 9350 fluorescence intensity (a.u.). “TCGAAATGTTTGACGCCGTTGACTTTTTAAGTATATGTTTCGGAGTCACCTAGTGCAG”: the binding signal was 29200 fluorescence intensity (a.u.). Consider “TTCAATTTTTCCGTCGCATCGTTCCAATTTCAACCAAACTCGGAGTCACCTAGTGCAG”, for which the binding signal is 8460 fluorescence intensity (a.u.). For the sequence “GTCACCATCCACCGTTTATTCGCAGCTCGTTTTATCACTACGGAGTCACCTAGTGCAG”, the binding signal is 14800 fluorescence intensity (a.u.). On to “CTGCCATGCCCGAGCTCGCGTCCGGTCGCCGCCGTAGTCACGGAGTCACCTAGTGCAG”, for which the binding signal was 8850 fluorescence intensity (a.u.). Next, “AATCACGGCGGGTCAAGCACAAACCAGGTGTTGACCGGCACGGAGTCACCTAGTGCAG”: 12500 fluorescence intensity (a.u.); “GCATCGACCGCGCGCGTATACGTTAACGCTCACCTTTGTTCGGAGTCACCTAGTGCAG”: 9420 fluorescence intensity (a.u.); “AATGCTACCCGTATCTGTATTGATGCTTTATGCTCTCATCCGGAGTCACCTAGTGCAG”: 8120 fluorescence intensity (a.u.).

Turning to “AGTACACGGTTGTTTATATTGCGCCACTCTCGCTGACTCGCGGAGTCACCTAGTGCAG”, the binding signal was 8800 fluorescence intensity (a.u.). For “GATTTTGACTTTTTACTTGCACTGTTTGACCATTCATATTCGGAGTCACCTAGTGCAG”, the binding signal is 16300 fluorescence intensity (a.u.).

For the sequence “AATGGTTTGGTTGTTGTTTTTTTTAAAAAAAACTTTCAGGCGGAGTCACCTAGTGCAG”, the binding signal was 8170 fluorescence intensity (a.u.). As for “TTAAACGGTCATTCTTGTGTTTTTCCTGTATTTTCTAATCCGGAGTCACCTAGTGCAG”, the figure is 9220 fluorescence intensity (a.u.); as for “CAAGGCCAACCGTATCCCATTACAACATTTTTCGCCGTCGCGGAGTCACCTAGTGCAG”, 8380 fluorescence intensity (a.u.). Next, “ATATCTGTATTTTTGGCGCCAAACATGGTTTACCATTCTCCGGAGTCACCTAGTGCAG”: 8420 fluorescence intensity (a.u.); “CTCGCCTCGCCTCGCCTCCGGTCCGTCCCCGTCGCCGATGCGGAGTCACCTAGTGCAG”: 8480 fluorescence intensity (a.u.); “GGGGATTGGTTTGGTGTGGGTGTTTTGTGTGGGGATTGATCGGAGTCACCTAGTGCAG”: 28100 fluorescence intensity (a.u.). On to “GAGTTCGTAGCTTTTAGGGTCATGCGGGGTTCTACCGTTGCGGAGTCACCTAGTGCAG”, for which the binding signal is 10500 fluorescence intensity (a.u.). As for “CATTCAATGTGTTCTGTGTTAGATAACCTTATGCCCCACGCGGAGTCACCTAGTGCAG”, the binding signal is 9170 fluorescence intensity (a.u.). Consider “TCAAAACTGAATTATCTTTGCGTGTGTGTTTGATCTATTTCGGAGTCACCTAGTGCAG”, for which the binding signal is 8290 fluorescence intensity (a.u.). Next, “ATGTACTAACTCCACGTTTTAATGCATGCAATATTTCTTTCGGAGTCACCTAGTGCAG”: 8410 fluorescence intensity (a.u.); “TTCTCCACACCCTGATTGTTTCTAGATTTTTTTTTATTCTCGGAGTCACCTAGTGCAG”: 8830 fluorescence intensity (a.u.).

For “ACGACTTTATCAATTGTTCTACAATACGCCATTGAGCTTCCGGAGTCACCTAGTGCAG”, the binding signal was 9190 fluorescence intensity (a.u.).

With “CGGGCCATCCAGAAGTGACCGAAATGTGGGAGGGGTTTTCCGGAGTCACCTAGTGCAG”, the binding signal was 12500 fluorescence intensity (a.u.).

With “TCCCCACCTCCCCAATCCCTGCCCCAGTTGAGCGTTCCTTCGGAGTCACCTAGTGCAG”, the binding signal was 8910 fluorescence intensity (a.u.). Turning to “CACCGTGCCATCTCTCTCTCTTTTTTACTTCTCGGGCTTTCGGAGTCACCTAGTGCAG”, the binding signal was 14100 fluorescence intensity (a.u.). For “ATGATTTGATTGGTCAGGACATTATTATCTTGGTCGTACTCGGAGTCACCTAGTGCAG”, the binding signal was 11100 fluorescence intensity (a.u.).

Turning to “ACAGGCACCTCGCTGTCAACGGGTACGCCACCTACCACTGCGGAGTCACCTAGTGCAG”, the binding signal is 8130 fluorescence intensity (a.u.).

In the case of “AACACTCCAATGCCAACAACACAACCTGCTCATATCATAACGGAGTCACCTAGTGCAG”, the binding signal was 12300 fluorescence intensity (a.u.). Next, “GATTGTTGGCCCCACATTTTTTGTGTCACTTACATGTGGGCGGAGTCACCTAGTGCAG”: 8620 fluorescence intensity (a.u.). “TTGGGAGGGGAGGGAGGAGGCACAAGAGTGGTGAGGAGAACGGAGTCACCTAGTGCAG”: the binding signal is 8700 fluorescence intensity (a.u.).

For “CTTAACCTCTTCACGCCACCGCCGGCCACCACCACCACTCCGGAGTCACCTAGTGCAG”, the binding signal was 10900 fluorescence intensity (a.u.). Next, “TCTCACTCCCATTCTCACTCGCACTCCCATTCACATTCCCCGGAGTCACCTAGTGCAG”: 11400 fluorescence intensity (a.u.); “GGTTATGCTATTACTTTATTATCATGCCGCACATTTCAGACGGAGTCACCTAGTGCAG”: 8300 fluorescence intensity (a.u.); “TCAATTTTCTTGTTGACTCGGTGTTTTTGACTGTGGTCAACGGAGTCACCTAGTGCAG”: 10900 fluorescence intensity (a.u.). “CACTTTGCCTTCGCTTTAGCCTTTGTGCTGTAACTTGCAACGGAGTCACCTAGTGCAG”: the binding signal was 13900 fluorescence intensity (a.u.).

With “GGAGGTGGTGGTTGGCAAGCTGGATACATGGATGGTTGTGCGGAGTCACCTAGTGCAG”, the binding signal is 9800 fluorescence intensity (a.u.).

Regarding “TGATAATTTAACGCTTTTTTCATTGTCCAATTACTTTAATCGGAGTCACCTAGTGCAG”, the binding signal is 9100 fluorescence intensity (a.u.).
